Results are given in words; binding and its absence hold for the method and conditions named. Some entries that bind do so weakly or less than the wild type. Sequences can lack the tags named with a protein.
How the values were obtained:
[1] = target: T1, human Bonzo with N-terminal hemagglutinin (HA) epitope, expressed on transfected L1.2 cells (Bonzo/L1.2 cells) (human) (UniProt O00574); assay: synthetic peptide on Bonzo/L1.2 cells; binding assay not described
T1 sequence: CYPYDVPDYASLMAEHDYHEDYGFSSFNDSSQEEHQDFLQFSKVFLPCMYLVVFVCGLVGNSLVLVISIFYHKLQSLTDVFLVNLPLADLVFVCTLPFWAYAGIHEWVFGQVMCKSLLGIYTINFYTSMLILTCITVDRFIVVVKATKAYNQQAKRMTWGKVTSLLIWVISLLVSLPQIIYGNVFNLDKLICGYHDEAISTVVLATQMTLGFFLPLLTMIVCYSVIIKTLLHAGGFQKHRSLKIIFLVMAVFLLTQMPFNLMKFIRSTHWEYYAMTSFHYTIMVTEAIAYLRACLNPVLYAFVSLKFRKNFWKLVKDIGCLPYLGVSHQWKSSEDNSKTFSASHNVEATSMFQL

Amino acid sequences for entries named in this document (tags omitted). A change or cut given only in a name is not applied to a line headed by its entry.
UniProt O00574: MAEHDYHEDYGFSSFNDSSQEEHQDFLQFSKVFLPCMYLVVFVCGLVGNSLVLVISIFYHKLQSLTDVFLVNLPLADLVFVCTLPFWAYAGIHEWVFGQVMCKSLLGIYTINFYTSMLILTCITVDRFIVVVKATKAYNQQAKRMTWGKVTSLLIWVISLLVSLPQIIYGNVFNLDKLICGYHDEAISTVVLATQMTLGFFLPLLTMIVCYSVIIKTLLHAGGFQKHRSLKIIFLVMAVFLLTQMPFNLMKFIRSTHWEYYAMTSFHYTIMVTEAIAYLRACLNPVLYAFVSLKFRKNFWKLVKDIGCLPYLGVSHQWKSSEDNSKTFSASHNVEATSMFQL

[2] = target: T1, human Bonzo with N-terminal hemagglutinin (HA) epitope, expressed on transfected L1.2 cells (Bonzo/L1.2 cells) (human); assay: inferred from chemotaxis of Bonzo/L1.2 cells

binding [1]: binds
binding [2]: binds
B1: synthetic peptide consisting of amino acid residues 30 (Asn) to 95 (Ser) of human SExCkine (SEQ ID NO:4) (peptide)
peptide: NEGSVTGSCYCGKRISSDSPPSVQFMNRLRKHLRAYHRCLYYTRFQLLSWSVCGGNKDPWVQELMS
